Results: PubChem BioAssay AID1671190 (National Center for Advancing Translational Sciences (NCATS), 2021)
Values joined by “and” are separate entries in the source; they are usually repeats but may differ in a detail not shown here. Equal entries are not always repeated. In all, about 580,000 compounds went through this assay and about 6,100 (1.1%) were called active. The shares of active, inactive and inconclusive entries below differ from those in the screen. The call rests on the fitted dose curve; in most records, active means well fitted inhibition curve with a large enough effect; inconclusive means small, poorly fitted or top-dose-only effect, or another doubt; inactive means no such curve, though single readings can be large or run the other way. Potencies of inconclusive entries are doubtful fits and often do not repeat.

Chains of the proteins cited; added tags and fusions are not shown. Lines headed by an entry give the natural chain unless they say otherwise; changes in a name come on top.
UniProt P18054: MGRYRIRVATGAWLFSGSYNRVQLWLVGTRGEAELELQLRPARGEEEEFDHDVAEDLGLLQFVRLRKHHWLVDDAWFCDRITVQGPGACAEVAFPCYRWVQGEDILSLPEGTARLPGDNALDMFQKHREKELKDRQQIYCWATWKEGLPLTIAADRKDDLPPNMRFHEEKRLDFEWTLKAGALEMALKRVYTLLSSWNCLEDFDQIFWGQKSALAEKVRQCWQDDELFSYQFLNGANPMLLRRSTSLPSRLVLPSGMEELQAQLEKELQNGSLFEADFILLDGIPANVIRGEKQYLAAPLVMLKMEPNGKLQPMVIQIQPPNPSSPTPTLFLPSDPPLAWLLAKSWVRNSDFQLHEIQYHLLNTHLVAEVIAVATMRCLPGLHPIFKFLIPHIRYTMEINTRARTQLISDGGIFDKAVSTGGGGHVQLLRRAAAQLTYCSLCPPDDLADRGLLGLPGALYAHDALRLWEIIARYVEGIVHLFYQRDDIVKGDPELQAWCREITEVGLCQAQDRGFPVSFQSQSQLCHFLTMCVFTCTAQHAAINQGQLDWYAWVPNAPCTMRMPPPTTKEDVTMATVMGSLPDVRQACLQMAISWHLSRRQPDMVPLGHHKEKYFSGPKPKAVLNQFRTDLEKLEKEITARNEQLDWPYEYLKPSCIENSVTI

The compounds below were run against Polyunsaturated fatty acid lipoxygenase ALOX12 (Homo sapiens) (UniProt P18054) (assay: Primary qHTS assay for inhibitors of human arachidonate 12S-lipoxygenase (ALOX12): Round 2). Settings: purified 12hLO, xylenol orange hydroperoxide absorbance; activity change, negative = inhibition: at 108 µM (top of the series) unless noted.
Outline: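 Purified human 12hLO at 150 nM in 25 mM Hepes, 0.01% Triton X-100, pH 7.0, preincubated 15 min at room temperature with compound. Reaction started with 40 uM arachidonic acid, 30 min at room temperature. Hydroperoxide measured by Fe-xylenol orange, 573/405 nm absorbance ratio.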
On the % scale 0 is the no-effect control and ±100 the full control effect; potency means the concentration at half of the fitted maximal effect.

SMILES | activity change, negative = inhibition | Potency
CCN1CCN(c2cc(C)c3cc(NC(=S)N4CCN(c5ccc(F)cc5)CC4)ccc3n2)CC1 | inactive: -0.92% | 
Cc1cc(=O)oc2cc(OCC(=O)N(C)C3(C#N)CCCCC3)c(Cl)cc12 |  | inconclusive: 100 µM [inhibitor, partial curve, poor fit]
O=C(CCCN1C(=O)/C(=C\c2cccs2)SC1=S)Nc1ccc(O)cc1 |  | inconclusive: 112 µM [inhibitor, single point]
COc1cc(NC(=O)c2nn(-c3ccc(F)cc3)c(=O)n(C)c2=O)cc(OC)c1OC |  | inconclusive: 141 µM [inhibitor, partial curve, poor fit]
O=C1NN(c2cccc(Br)c2)C(=O)/C1=C\c1ccccc1 |  | active: 5.62 µM
CCOc1ccc(-c2[nH]nc3c2C(c2c(F)cccc2Cl)C(C#N)=C(N)O3)c(OCC)c1 (centres undefined) | inactive: -21.6% | 
O=S(=O)(c1ccc(Cl)c(C(F)(F)F)c1)N1CCN(CC(O)COc2ccccc2F)CC1 (centres undefined) |  | inconclusive: 7.08 µM [inhibitor, full curve]
COC(=O)c1cc2c([nH]c1=O)CCCC2=O |  | inconclusive: 35.5 µM [inhibitor, full curve, poor fit]
CC(C)=CC(=O)Nc1ccc(F)c(Cl)c1 |  | inconclusive: 50.1 µM [inhibitor, partial curve, poor fit]
CC(C(O)c1ccc(O)cc1)N1CCC(Cc2ccccc2)CC1 (centres undefined) |  | inconclusive: 44.7 µM [inhibitor, partial curve, poor fit] and inconclusive: 11.4 µM [inhibitor, partial curve, poor fit] and inconclusive: 39.8 µM [inhibitor, partial curve]
C/C(=N\NC(=S)NC(C)C)c1ccco1 | inconclusive: -33.3% [inhibitor] | 
CN1CCN(c2ncc3nc(-c4ccccc4)c(=O)n(CCC#N)c3n2)CC1 | inactive: 95.4% | 
O=C(CC(c1ccc(Cl)cc1)S(=O)(=O)c1ccccc1)c1ccccc1 (centres undefined) |  | inconclusive: 39.8 µM [inhibitor, partial curve, poor fit]
NC(=O)c1sc2nc(-c3ccco3)ccc2c1N |  | inconclusive: 10 µM [inhibitor, full curve, poor fit]
Cc1ccccc1NC(=O)c1c(NC(=O)C(F)(F)F)sc2c1CCCCC2 |  | inconclusive: 35.5 µM [inhibitor, partial curve, poor fit]
O=C(CSc1nnc(NC(=O)C2CC(=O)N(c3ccc(F)cc3)C2)s1)NCC1CCCO1 (centres undefined) |  | inconclusive: 35.5 µM [inhibitor, partial curve, poor fit]
O=C(O)c1ccnc(C2CCCC/C2=N\O)c1 (centres undefined) |  | inconclusive: 0.631 µM [inhibitor, full curve, poor fit]
COc1ccc(CC(=O)Nc2nnc(-c3cccc([N+](=O)[O-])c3)s2)cc1 | inactive: 31.1% [at 57.4 µM] | 
N=c1n(CCO)c2ccccc2n1CCOc1ccc(Cl)cc1Cl |  | inconclusive: 112 µM [inhibitor, single point]
COc1ccc(C#Cc2c(-c3ccccc3OC)oc3ccccc23)cc1 |  | inconclusive: 10 µM [inhibitor, full curve, poor fit]

Quoted at random: 3 entries already listed, in no set order.
SMILES | activity change, negative = inhibition | Potency
O=C(CSc1nnc(NC(=O)C2CC(=O)N(c3ccc(F)cc3)C2)s1)NCC1CCCO1 (centres undefined) |  | inconclusive: 35.5 µM [inhibitor, partial curve, poor fit]
Cc1cc(=O)oc2cc(OCC(=O)N(C)C3(C#N)CCCCC3)c(Cl)cc12 |  | inconclusive: 100 µM [inhibitor, partial curve, poor fit]
O=S(=O)(c1ccc(Cl)c(C(F)(F)F)c1)N1CCN(CC(O)COc2ccccc2F)CC1 (centres undefined) |  | inconclusive: 7.08 µM [inhibitor, full curve]

Additional compounds follow:

SMILES | activity change, negative = inhibition | Potency
O=C(COC(=O)c1ccc(S(=O)(=O)N2CCOCC2)cc1)NCc1cccs1 |  | inconclusive: 70.8 µM [inhibitor, partial curve, poor fit]
Clc1ccc(-c2noc(CNC3CCCCC3)n2)cc1 |  | inconclusive: 31.6 µM [inhibitor, partial curve, poor fit]
N#Cc1nc(-c2cccs2)oc1NCc1ccco1 |  | inconclusive: 89.1 µM [inhibitor, partial curve, poor fit]
Nc1cccn2c(-c3ccc(Cl)cc3)cnc12 |  | inconclusive: 44.7 µM [inhibitor, partial curve, poor fit]
CC(C)C[C@H]1CNC(=S)N1CC1CCCN1C[C@H](CC(C)C)N1C[C@H](CC(C)C)N(CCc2ccccc2)C1=S (some centres undefined) |  | inconclusive: 50.1 µM [inhibitor, partial curve, poor fit]
COc1cc2c(cc1OC)CN(C(=O)CCCOc1ccc(Cl)cc1Cl)CC2 | inactive: -10.9% | 
Cc1ccc(C(CC(=O)N2CCN(c3ccc([N+](=O)[O-])cc3)CC2)c2cn(C)c3ccccc23)cc1 (centres undefined) |  | inconclusive: 20 µM [inhibitor, full curve, poor fit]
COc1ccc(-c2nnc(Nc3nc4c(OC)cccc4s3)o2)cc1 | inactive: -1.94% | 
CCOC(=O)C1=C(C)NC2=C(C(=O)CC(c3cccs3)C2)C1c1cccs1 (centres undefined) |  | inconclusive: 0.199 µM [inhibitor, full curve, poor fit]
CC(=O)NC(=S)Nc1ccc(N2CCOCC2)c(S(=O)(=O)Nc2cc(Cl)ccc2Cl)c1 | inactive: -23.8% | 
COC(=O)/C=c1/sc2nc3ccccc3n2c1=O |  | inconclusive: 6.31 µM [inhibitor, full curve, poor fit]
COc1cc(NC(=O)CCc2c(C)c3ccc(C)cc3oc2=O)cc(OC)c1 |  | inconclusive: 44.7 µM [inhibitor, partial curve, poor fit]
CCC1CCc2nc3sc(C(=O)Nc4ccc(F)c(F)c4)c(N)c3cc2C1 (centres undefined) |  | inconclusive: 126 µM [inhibitor, partial curve, poor fit]
Cn1c(-c2ccc(S(=O)(=O)N3CCCC3)cc2)csc1=Nc1ccc(Cl)c(Cl)c1 |  | inconclusive: 112 µM [inhibitor, single point]
Cc1cccc(OCC(=O)NCC(=O)N/N=C/c2ccccc2)c1 | inactive: 5.61% | 
COc1ccc(C2CC(=O)c3cnc(NC(=O)c4ccccc4OC)nc3C2)c(OC)c1 (centres undefined) | inactive: 2.83% | 
O=C(O)Cn1nnc(-c2ccccc2)c1COc1ccccc1 |  | inconclusive: 31.6 µM [inhibitor, partial curve, poor fit]
Fc1ccc(OCc2noc(-c3ccco3)n2)c(Br)c1 |  | inconclusive: 31.6 µM [inhibitor, partial curve, poor fit]
CCOc1ccc(CCN2C(=O)C(=O)N([C@@H](CC(C)C)CN3CCC[C@H]3CN3C(=O)C(=O)NC[C@@H]3CC(C)C)C[C@@H]2Cc2ccc(O)cc2)cc1 | inactive: -18.2% | 
